Experimental data taken from paper PMC6128905.
Results are given in words; binding and its absence hold for the method and conditions named. In cells and extracts the contact can be indirect.

The chains behind the UniProt entries cited, without tags or fusion partners. Where a name states a change or a piece, a line headed by the entry shows the natural chain unless it says otherwise. A line that says so, or that is headed by a name, gives the form on record, which may keep a tag or linker.
myc-NRAS^G12V (P01111, form named): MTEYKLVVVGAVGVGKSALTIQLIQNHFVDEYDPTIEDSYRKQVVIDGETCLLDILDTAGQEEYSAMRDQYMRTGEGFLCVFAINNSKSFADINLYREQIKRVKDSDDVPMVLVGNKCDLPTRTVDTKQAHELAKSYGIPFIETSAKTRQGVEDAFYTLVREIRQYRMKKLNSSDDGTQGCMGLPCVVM
UniProt Q99755: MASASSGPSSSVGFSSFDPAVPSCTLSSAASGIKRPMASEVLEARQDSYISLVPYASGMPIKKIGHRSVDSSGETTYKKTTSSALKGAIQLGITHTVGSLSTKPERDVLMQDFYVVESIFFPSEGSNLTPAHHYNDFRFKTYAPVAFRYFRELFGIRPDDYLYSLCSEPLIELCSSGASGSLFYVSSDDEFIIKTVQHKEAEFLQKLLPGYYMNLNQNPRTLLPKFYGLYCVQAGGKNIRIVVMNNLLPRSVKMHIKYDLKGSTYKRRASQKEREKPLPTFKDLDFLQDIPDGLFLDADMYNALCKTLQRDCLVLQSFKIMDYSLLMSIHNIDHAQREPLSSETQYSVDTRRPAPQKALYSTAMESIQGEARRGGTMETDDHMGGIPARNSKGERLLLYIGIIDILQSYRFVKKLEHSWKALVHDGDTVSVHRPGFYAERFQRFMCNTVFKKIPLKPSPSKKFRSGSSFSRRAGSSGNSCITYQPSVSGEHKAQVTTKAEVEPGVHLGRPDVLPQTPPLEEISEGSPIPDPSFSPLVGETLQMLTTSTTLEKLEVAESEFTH

Molecular target: myc-NRAS^G12V (human) (UniProt P01111)
Test: co-IP; 293T lysates (50 mM Tris pH 8.0, 100 mM NaCl, 0.5 mM EDTA, 1% Triton X-100); myc-RAS precipitated with α-myc on Dynabeads Protein G, PIP5K1A-V5 detected by α-V5 immunoblot

Q: Which binding does the source give for PIP5K1A-V5 (from UniProt Q99755 1-562) here?
A: no binding
